Experimental data taken from PubChem BioAssay AID1487 (National Center for Advancing Translational Sciences (NCATS), 2009).
The list shows a part of the results. Shown are side measurements of this screen, not its main read-out; they come without a call. Most of these compounds were active or inconclusive in the main read-out, so they are no random draw. The note in brackets gives the kind of curve behind each potency; many fits are weak.

Assay: qHTS Assay for Modulators of Lamin A Splicing
Conditions: HeLa LMNA splicing GFP/RFP minigene ratio, 48 h
Method in brief: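 Read-out is the ratio of GFP to DsRed2 object intensity, acquired by 488 nm laser-scanning cytometry on HeLa lamin A-EGFP minigene reporter cells. Compound incubation 48 hrs at 37 °C in Opti-MEM with 2% FBS; DMSO 0.5% final.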

[1] = measured here: RFP viability control channel
[2] = measured here: GFP splicing reporter channel

SMILES: COc1ccc(-c2csc(NC(=O)CSc3ncn[nH]3)n2)cc1OC
- AC50 [1]: 0.02 µM [rising, full curve, poor fit]

SMILES: CC1(C)CC(=O)C2=C(C1)C(c1cn(-c3ccccc3)nc1-c1ccccc1)C(C#N)=C(N)O2 (stereo unspecified)
- AC50 [1]: 25.1 µM [rising, single point]

SMILES: Cc1nc2c(C(=O)NCc3cccs3)cnn2c(C)c1Cc1ccc(F)cc1
- AC50 [1]: 0.1 µM [rising, full curve, poor fit]

SMILES: Cc1cccc(CN2C(=O)c3ccccc3Sc3ccc(C(=O)NCCCN4CCOCC4)cc32)c1
- AC50 [2]: 15.8 µM [falling, partial curve]
- AC50 [1]: 20 µM [falling, partial curve, poor fit]

SMILES: COC(=O)N/N=C/c1cn(Cc2ccc(Cl)cc2Cl)c2ccccc12
- AC50 [2]: 1.41 µM [rising, full curve]
- AC50 [1]: 11.2 µM [rising, partial curve]

SMILES: COC(=O)c1nnn(CC(=O)NC(=O)Nc2cccc(Cl)c2C)c1C(=O)OC
- AC50 [2]: 3.55 µM [rising, single point]

SMILES: Cc1sc2ncnc(SCC(=O)NC(=O)NCc3ccco3)c2c1C
- AC50 [2]: 11.2 µM [rising, single point]
- AC50 [1]: 12.6 µM [rising, partial curve]

SMILES: O=C(c1ccc2c(c1)OCCO2)C1CCN(C(=O)c2ccc(F)cc2)CC1
- AC50 [2]: 14.1 µM [rising, single point]
- AC50 [1]: 20 µM [rising, single point]

SMILES: O=C(Nc1ccc(Cl)cc1F)c1cc(S(=O)(=O)NC2CCCCCC2)ccc1F
- AC50 [2]: 35.5 µM [falling, single point]
- AC50 [1]: 35.5 µM [falling, single point]

SMILES: COc1ccc(NC(=O)Cn2ccn(-c3ccc(C)c(C)c3)c(=O)c2=O)cc1Cl
- AC50 [2]: 0.00891 µM [falling, full curve, poor fit]

SMILES: COc1ccccc1CNc1ncnc2ccc(-c3ccc4c(c3)OCO4)cc12
- AC50 [2]: 12.6 µM [falling, partial curve]
- AC50 [1]: 22.4 µM [falling, single point]

SMILES: Cc1cccc(-c2nc3cc(NC(=O)COc4ccccc4F)ccc3o2)c1
- AC50 [2]: 0.708 µM [rising, full curve, poor fit]
- AC50 [1]: 1 µM [rising, full curve]

SMILES: Cc1cc(/C=C(\C#N)C(=O)Nc2ccc(F)cc2)c(C)n1-c1ccc(N2CCOCC2)c([N+](=O)[O-])c1
- AC50 [1]: 7.94 µM [rising, partial curve]

SMILES: COc1cccc(-c2nc(CSCC(=O)NCC3CCCO3)c(C)o2)c1 (stereo unspecified)
- AC50 [2]: 8.91 µM [rising, partial curve, poor fit]
- AC50 [1]: 14.1 µM [rising, single point]

SMILES: CC(C)OC(=O)c1cc(C(=O)c2cc(Br)ccc2O)coc1=N
- AC50 [1]: 0.562 µM [falling, full curve, poor fit]

SMILES: CCOC(=O)c1ccccc1NS(=O)(=O)c1ccc(OCC)cc1
- AC50 [1]: 8.91 µM [rising, partial curve, poor fit]

SMILES: Cc1nnc(SCC(=O)NC(C)(C)C)n1NCc1ccc(Cl)cc1
- AC50 [1]: 6.31 µM [falling, partial curve, poor fit]

SMILES: COC(=O)c1sccc1NC(=S)N1CCN(c2cccc(C)c2C)CC1
- AC50 [2]: 31.6 µM [rising, single point]
- AC50 [1]: 35.5 µM [rising, single point]

SMILES: O=C(O)c1ccc(NC(=O)C2C3CCC(C3)C2C(=O)O)cc1 (stereo unspecified)
- AC50 [1]: 4.47 µM [falling, full curve, poor fit]

SMILES: Cc1ccc(S(=O)(=O)Oc2ccccc2/C=N/NC(=O)c2c(Cl)cnn2C)cc1
- AC50 [1]: 15.8 µM [rising, single point]

SMILES: Cc1ccc(-c2csc3ncnc(N4CCN(C(=O)c5ccccc5)CC4)c23)cc1
- AC50 [1]: 35.5 µM [rising, single point]

SMILES: CCOc1ccc(-c2cc3c(=O)n(CC(=O)NCc4ccccc4)ccn3n2)cc1
- AC50 [2]: 0.02 µM [rising, full curve, poor fit]
- AC50 [1]: 0.01 µM [rising, full curve, poor fit]

SMILES: CCOC(=O)c1sc(Nc2nc(C)cc(OC)n2)nc1C
- AC50 [1]: 22.4 µM [falling, partial curve, poor fit]

SMILES: COc1ccc(CNC(=O)CNS(=O)(=O)c2ccc(Cl)cc2)cc1
- AC50 [1]: 10 µM [rising, single point]

SMILES: CC(/C=C1\SC(=O)N(CC(=O)Nc2cccc(O)c2)C1=O)=C\c1ccccc1
- AC50 [1]: 25.1 µM [rising, single point]

SMILES: O=C(CC(O)(C(F)(F)F)C(F)(F)F)Nc1ccc(Cl)c(Cl)c1
- AC50 [2]: 7.08 µM [rising, full curve, poor fit]
- AC50 [1]: 6.31 µM [rising, full curve]

SMILES: COc1cc2c(cc1OC)C(C)N(C(=O)c1cc3ccccc3o1)CC2 (stereo unspecified)
- AC50 [2]: 3.98 µM [falling, full curve]

SMILES: Cc1cccc(-c2nsc(SCC(=O)Nc3ccc4c(c3)OCO4)n2)c1
- AC50 [1]: 20 µM [rising, single point]

SMILES: Cc1nn(Cc2ccc(Cl)cc2)c(C)c1NC(=O)CSc1nc2c(c(C(F)(F)F)n1)CCc1ccccc1-2
- AC50 [1]: 22.4 µM [falling, partial curve]

SMILES: CCc1ccc2oc(-c3cccc(NC(=O)c4cccnc4)c3)nc2c1
- AC50 [2]: 35.5 µM [rising, single point]

SMILES: Cc1ccc(CNC(=O)Cn2ccn(-c3ccc(F)c(F)c3)c(=O)c2=O)cc1
- AC50 [1]: 11.2 µM [falling, partial curve]

SMILES: CCOc1ccc(C(=O)Nc2ccc(C(=O)OCc3cc(=O)n4c(C)csc4n3)cc2)cc1
- AC50 [2]: 35.5 µM [falling, single point]
- AC50 [1]: 35.5 µM [falling, single point]

SMILES: CC1CCN(C(=O)c2cc(-c3ccc(Cl)c(Cl)c3)on2)CC1
- AC50 [1]: 35.5 µM [rising, single point]

SMILES: CC1(C)CC(CC(=O)Nc2nccs2)(c2ccccc2)CCO1 (stereo unspecified)
- AC50 [2]: 2.82 µM [falling, partial curve, poor fit]
- AC50 [1]: 0.0447 µM [falling, full curve, poor fit]

SMILES: CCCc1cc(=O)oc2cc(C)c3c(C)coc3c12
- AC50 [2]: 1.58 µM [rising, full curve, poor fit]

SMILES: CCCCn1c(N(CCOC(C)=O)C(C)=O)nc2ccccc21
- AC50 [1]: 12.6 µM [rising, partial curve]

SMILES: COc1ccccc1OCCNCC(O)COc1cccc2[nH]c3ccccc3c12 (stereo unspecified)
- AC50 [2]: 7.94 µM [falling, partial curve]
- AC50 [1]: 8.91 µM [rising, partial curve, poor fit]

SMILES: COc1ccc(C2C(C#N)=C(N)Oc3cc4c(cc32)OCO4)cc1 (stereo unspecified)
- AC50 [1]: 31.6 µM [rising, single point]

SMILES: CSc1cccc(NC(=S)N2CCCN(Cc3ccccc3F)C2)c1
- AC50 [1]: 4.47 µM [falling, full curve]

SMILES: Oc1ccccc1Cn1c(-c2ccccc2O)nc2ccccc21
- AC50 [2]: 12.6 µM [rising, partial curve]
- AC50 [1]: 20 µM [rising, single point]

SMILES: CN(C)S(=O)(=O)c1cc(NC(=O)CN2CCOCC2)ccc1Cl
- AC50 [1]: 3.98 µM [falling, single point]

SMILES: Cc1cc(NC(=O)C2CCCN(S(=O)(=O)c3cn(C)cn3)C2)ccc1Br (stereo unspecified)
- AC50 [2]: 25.1 µM [falling, single point]
- AC50 [1]: 35.5 µM [falling, single point]

SMILES: Cc1nc(NC(C)C)c2oc3ccccc3c2n1
- AC50 [2]: 15.8 µM [rising, partial curve, poor fit]
- AC50 [1]: 14.1 µM [rising, partial curve]

SMILES: O=C(Nc1ccc(N2CCOCC2)cc1)C1CCCN(S(=O)(=O)c2ccccc2)C1 (stereo unspecified)
- AC50 [1]: 11.2 µM [rising, partial curve]

SMILES: C/C(=N\NC(=O)COc1ccc(C)cc1[N+](=O)[O-])c1cccs1
- AC50 [1]: 0.126 µM [rising, single point]

SMILES: Cc1nnc(SCC(=O)Nc2sc3c(c2C(=O)c2ccccc2)CCCC3)s1
- AC50 [1]: 31.6 µM [rising, single point]

SMILES: CC(=O)c1c[nH]c2ccc(C)cc2c1=O
- AC50 [2]: 35.5 µM [rising, single point]

SMILES: Cc1cc(C)c(C)c(S(=O)(=O)N2CCN(C(=O)c3cc(=O)[nH]c4ccccc34)CC2)c1C
- AC50 [2]: 2.51 µM [falling, full curve, poor fit]
- AC50 [1]: 3.55 µM [falling, partial curve, poor fit]

SMILES: Cc1ccc(NCc2nnc(SCC(=O)Nc3ncc(C)s3)n2CC2CCCO2)c(C)c1 (stereo unspecified)
- AC50 [2]: 6.31 µM [rising, partial curve]
- AC50 [1]: 11.2 µM [rising, single point]

SMILES: CCOc1ccc(NC(=O)c2c(NCc3cccs3)sc3c2CCCCC3)cc1
- AC50 [2]: 35.5 µM [falling, single point]

SMILES: O=C(CC1C(=O)NCCN1Cc1cccc(Oc2ccccc2)c1)NCCc1ccncc1 (stereo unspecified)
- AC50 [2]: 5.62 µM [rising, single point]

SMILES: COCCn1c(SCC(=O)Nc2nc(C)c(Cl)cc2Cl)nc2ccccc21
- AC50 [2]: 25.1 µM [rising, single point]
- AC50 [1]: 35.5 µM [rising, single point]

SMILES: O=[N+]([O-])c1ccc(S(=O)(=O)CC2CSc3nc4ccccc4n32)cc1 (stereo unspecified)
- AC50 [2]: 1.78 µM [rising, full curve]
- AC50 [1]: 3.55 µM [rising, full curve]

SMILES: CC(C)Cn1c(C(C)C)nc([N+](=O)[O-])c1S(=O)(=O)c1ccc(F)cc1
- AC50 [2]: 31.6 µM [falling, single point]
- AC50 [1]: 35.5 µM [falling, single point]
